From PubChem BioAssay AID540276 (National Center for Advancing Translational Sciences (NCATS), 2011)
Several values for one entry are separate records, joined by “and”; a condition that tells them apart may be missing. Equal entries are not always repeated. In all, about 300,000 compounds went through this assay and about 5,400 (1.8%) were called active. Inconclusive results, whose numbers are uncertain, are shown with a selection of clear calls. Calls come from the whole dose curve; tested in HEK293 cells. Potencies beside an inconclusive call are fits to weak or partial responses and may not hold up. A structure can be active in one record and inactive in another.

Experiment: qHTS for inhibitors of binding or entry into cells for Marburg Virus
Conditions: Marburg virus pseudotyped entry inhibition, cell reporter; activity change, negative = inhibition: at 37.8 µM (top of the series) unless noted
% is set by controls: 0 for no effect and ±100 for the full control effect; potency is the fitted concentration of half-maximal effect.

Compound	activity change, negative = inhibition	Potency
COc1ccc(CN(C)C(=O)c2ccc(NC(=O)CC3SC(N4CCCC4)=NC3=O)cc2)c(OC)c1 (stereo not drawn)	inactive: -1.45% [at 46.1 µM]	–
CCC(=O)Nc1cccc(C(=O)Nc2nccs2)c1	–	inconclusive: 2.24 µM [activator, partial curve, poor fit]
c1ccc(Cc2nnc(N3CCCCC3)c3ccccc23)cc1	inactive: -1.19% [at 46.1 µM]	–
Cc1c(CNC2CCCCC2)c(C(=O)O)c(C)n1Cc1ccc(F)cc1	inactive: 0.507% [at 46.1 µM]	–
CCc1ccccc1N(C)S(=O)(=O)c1ccc2[nH]cc(C(=O)N3CCc4ccccc43)c(=O)c2c1	–	inconclusive: 1.26 µM [activator, full curve, poor fit]
CCN(CC)CCN(C(=O)c1ccc2c(c1)OCCO2)c1nc2cc3c(cc2s1)OCO3	–	inconclusive: 35.5 µM [inhibitor, single point]
O=C(NC1CC(=O)N(c2ccc3c(c2)OCCO3)C1)N1CCCCC1 (stereo not drawn)	–	inconclusive: 5.62 µM [activator, single point]
O=C1C2C3C=CC(C4CC34)C2C(=O)N1/N=C/c1c[nH]c2ccccc12 (stereo not drawn)	–	inconclusive: 5.62 µM [activator, partial curve, poor fit]
CCCCOc1ccc(C2CC(=O)NC2=O)cc1 (stereo not drawn)	inactive: 24.4%	–
Cn1c(OCc2cccnc2)nc2c1c(=O)n(Cc1ccc(Br)cc1)c(=O)n2C	–	inactive
Cc1ccc2nc(SCC(=O)N3CCN(c4ccccc4)CC3)nc(=O)n2c1	inactive: 20.2% [at 46.1 µM]	–
CCN(CC)CCNC(=O)c1sc2ncn(CC(=O)Nc3ccc(C)c(Cl)c3)c(=O)c2c1C	–	inconclusive: 25.1 µM [inhibitor, single point]
O=C(Nc1ccc2oc(-c3ccc4ccccc4c3)nc2c1)c1ccc2c(c1)OCCO2	–	inconclusive: 0.651 µM [activator, single point]
CC(C)c1noc(-c2ccccc2OCC(=O)Nc2ccccc2[N+](=O)[O-])n1	–	inconclusive: 12.6 µM [inhibitor, partial curve, poor fit]
O=C(N1CCOCC1)N1CCN(S(=O)(=O)c2ccc(Cl)cc2)C1	–	inconclusive: 7.08 µM [inhibitor, full curve]
Cc1nn(CC(=O)Nc2cc(F)ccc2F)c(=O)c2cccn12	–	inconclusive: 2.51 µM [activator, full curve, poor fit]
CC(C)(C)C(=O)NC(=S)Nc1ccccc1F	inactive: 16.1%	–
CC(C)(C)c1ccccc1NC(=O)CSc1nc(-c2cccs2)cc(C(F)(F)F)n1	–	inconclusive: 6.31 µM [inhibitor, single point]
O=C(CP(=O)(c1ccccc1)c1ccccc1)Nn1cnnc1	inactive: -1.72%	–
CCOC(=O)C1=C(C)NC(C)=C(C(=O)OCC)C1C(=O)OCC(=O)N1c2ccccc2CC1C (stereo not drawn)	–	inactive and active: 12.6 µM
Cc1cccc(N=Nc2c(N)n[nH]c2-c2ccc(Cl)cc2)c1	–	inconclusive: 29.1 µM [inhibitor, single point]
O=C(CCCOc1ccc(Cl)cc1Cl)Nc1cc(S(=O)(=O)N2CCOCC2)ccc1N1CCOCC1	–	inconclusive: 35.5 µM [inhibitor, single point]
Cc1ccccc1-n1c(SCC(=O)N/N=C/c2c(C)nn(-c3ccccc3)c2C)nc2ccccc2c1=O	–	active: 7.31 µM

4 of these compounds in a different format:

| Compound | activity change, negative = inhibition | Potency |
| --- | --- | --- |
| O=C(CP(=O)(c1ccccc1)c1ccccc1)Nn1cnnc1 | inactive: -1.72% | – |
| CCOC(=O)C1=C(C)NC(C)=C(C(=O)OCC)C1C(=O)OCC(=O)N1c2ccccc2CC1C (stereo not drawn) | – | inactive and active: 12.6 µM |
| Cc1cccc(N=Nc2c(N)n[nH]c2-c2ccc(Cl)cc2)c1 | – | inconclusive: 29.1 µM [inhibitor, single point] |
| O=C(CCCOc1ccc(Cl)cc1Cl)Nc1cc(S(=O)(=O)N2CCOCC2)ccc1N1CCOCC1 | – | inconclusive: 35.5 µM [inhibitor, single point] |

Continued:

Compound	activity change, negative = inhibition	Potency
Cc1ccc(/C=N/NC(=O)c2cccs2)cc1[N+](=O)[O-]	inactive: 23.1%	–
O=C(Nc1cccc(Cl)c1Cl)c1cc(S(=O)(=O)NCCc2ccccc2)ccc1F	–	inconclusive: 2 µM [activator, single point]
Cc1nn2c(NCCN3CCOCC3)c3c(nc2c1-c1ccccc1)CCCC3	–	inconclusive: 35.5 µM [inhibitor, single point]
CCCCCC(O)CCCC(=O)O (stereo not drawn)	–	inconclusive: 31.6 µM [inhibitor, full curve, poor fit]
C=CCn1c(SCC(=O)c2cccs2)nc2sc(CC)cc2c1=O	–	inconclusive: 29.1 µM [inhibitor, single point]
CC(=O)OC1OCCOC1NC(=S)Nc1cccc(C(F)(F)F)c1 (stereo not drawn)	inactive: 7.58% [at 46.1 µM]	–
CN(C)CCCCOc1ccc(Br)cc1Cl	–	inconclusive: 35.5 µM [inhibitor, single point]
NC(=O)C1CCCN(C(=S)NCc2ccc3c(c2)OCO3)C1 (stereo not drawn)	inactive: 7.8% [at 46.1 µM]	–
CN(Cc1ccccc1)C(=O)CN1C(=O)c2ccccc2C1=O	–	inconclusive: 10 µM [activator, partial curve]
O=C(N/N=C/c1cccnc1)c1ccc(Cl)c(Cl)c1	–	inconclusive: 35.5 µM [inhibitor, single point]
COc1ccc(C(=O)N(c2ccc(OC)cc2)S(=O)(=O)c2ccc3c(c2)n(C)c(=O)n3C)cc1	–	inconclusive: 5.62 µM [activator, single point]
O=C(/C=C/c1ccco1)NC(=S)Nc1ccccn1	inactive: 7.85% [at 46.1 µM]	–
CN(C(=O)COC(=O)c1cccc(F)c1)c1ccccc1	inactive: 26.6% [at 46.1 µM]	–
COc1ccc(C(=O)/C=C2\C(=O)Nc3ccc(Br)cc32)cc1	–	inconclusive: 22.4 µM [inhibitor, single point]
CCCOC(=O)Nc1ccc(C(N)=O)cc1	inactive: 15.3%	–
Cc1ccc(-n2c(C)cc(C(=O)CN3CCOCC3)c2C)cc1	inactive: 7.57% [at 46.1 µM]	–
Cc1ccc(C)c(N2CCN(CCCNC(=O)c3ccc4nc(N5CCCCC5)sc4c3)CC2)c1	–	inconclusive: 0.562 µM [activator, full curve, poor fit]
Cc1ccc(-c2nnc(Nc3ccccc3)c3ccccc23)cc1S(=O)(=O)NCc1nc2ccccc2[nH]1	–	inconclusive: 11.2 µM [inhibitor, partial curve, poor fit]
COc1ccc(COC(=O)c2cc(S(=O)(=O)N3CCCCC3)ccc2N2CCOCC2)cc1	–	inconclusive: 20 µM [inhibitor, partial curve, poor fit]
COc1ccc(/C=N/Nc2nc(C)c([N+](=O)[O-])c(N(C)c3ccccc3)n2)cc1OC	–	inconclusive: 1.78 µM [inhibitor, partial curve, poor fit]
Fc1ccc(-c2cc(C(F)(F)F)nc(NCC3CCCO3)n2)cc1 (stereo not drawn)	inactive: 5.04%	–
COc1ccccc1NC(=S)NC(=O)CCCOc1ccc(Cl)cc1Cl	–	inconclusive: 5.8 µM [inhibitor, full curve, poor fit]
O=C(Nc1cccc(F)c1)c1ccc(S(=O)(=O)N2CCCCC2)cc1	–	inconclusive: 1.58 µM [inhibitor, full curve, poor fit]

Compound	activity change, negative = inhibition	Potency
Cc1ccc(/C=C/C(=O)C2C(=O)c3ccccc3C2=O)cc1	–	inconclusive: 7.3 µM [inhibitor, partial curve, poor fit]
Cc1cccc(C)c1NS(=O)(=O)c1ccc(NS(=O)(=O)c2ccc3c(c2)OCCO3)cc1	–	inconclusive: 0.562 µM [inhibitor, full curve, poor fit]
Cc1cccc(C)c1NC(=O)CN(C)C(C)C(=O)Nc1ccccc1-c1ccccc1 (stereo not drawn)	–	inconclusive: 8.91 µM [inhibitor, partial curve]
C=Cc1ccc(COc2ccc3oc(-c4ccccc4)c(C(=O)OCC)c3c2)cc1	inactive: 2.74% [at 46.1 µM]	–
COc1ccc(CNc2nc(C)cc(C)c2C#N)cc1	inactive: 12.4%	–
O=C(Nc1noc2ccccc12)c1ccc(F)cc1	–	inconclusive: 7.94 µM [activator, partial curve, poor fit]
CCOC(=O)c1ccc(NC(=O)C2(S(=O)(=O)c3ccc(Cl)cc3)CC2)cc1	–	inconclusive: 35.5 µM [inhibitor, single point]
CCOC(=O)C1=C(COC(=O)/C=C/c2ccc(OC)cc2)NC(=O)NC1C (stereo not drawn)	inactive: -22.6%	–
CCc1ccc(C(=O)CN(C#N)c2nc(C)cc(C)n2)cc1	–	active: 11.2 µM
Cc1nn(-c2ccc(C(=O)Nc3nnc(C4CC4)s3)cc2)c(C)c1Cl	–	inconclusive: 6.31 µM [inhibitor, single point]
O=C(NNc1ccc(C(F)(F)F)cc1[N+](=O)[O-])c1ccc(NS(=O)(=O)c2ccc(F)cc2)cc1	–	inconclusive: 15.8 µM [inhibitor, single point]
Nc1cc2c3c(cccc3c1)C(=O)N(CCN1CCCC1)C2=O	–	active: 6.31 µM
CCOC(=O)CNC(=O)CSc1nnc(-c2ccccc2OC)n1CC	–	inconclusive: 31.6 µM [activator, single point]
c1cncc(-c2nc(NCC3COc4ccccc4O3)c3ccccc3n2)c1 (stereo not drawn)	–	inconclusive: 8.91 µM [inhibitor, partial curve, poor fit]
Cc1ccc(C(=O)Nc2c[nH]c(=O)[nH]c2=O)cc1	–	inconclusive: 5.62 µM [inhibitor, single point]
Cc1ccccc1C(=O)N1CCN(c2ccc([N+](=O)[O-])c(NCc3ccco3)c2)CC1	–	inconclusive: 35.5 µM [inhibitor, single point]
COc1cccc(C(C(=O)NC2CCCC2)N(C(=O)c2ccco2)c2ccccc2)c1OC (stereo not drawn)	–	inconclusive: 15.8 µM [inhibitor, single point]
CC(C)OC(=O)c1cccc2c1C(=O)c1ccccc1-2	–	inconclusive: 10 µM [activator, partial curve, poor fit]
C[C@@H]1CCN=C(N)S1	–	inconclusive: 14.6 µM [inhibitor, single point]
CC1CC2(C)Oc3ccccc3CC2C(C)C1CNCCCN(C)C (stereo not drawn)	–	inconclusive: 2.51 µM [inhibitor, full curve, poor fit]
O=C(NCC1CCCO1)/C(=C\c1ccc(Cl)cc1)NC(=O)c1ccccc1 (stereo not drawn)	–	inconclusive: 31.6 µM [inhibitor, single point]
c1ccc(/N=C2\N=C(Nc3ccccn3)c3ccccc32)nc1	–	inconclusive: 6.31 µM [inhibitor, partial curve, poor fit]
